Chains of the proteins cited; added tags and fusions are not shown.
UniProt Q96A72: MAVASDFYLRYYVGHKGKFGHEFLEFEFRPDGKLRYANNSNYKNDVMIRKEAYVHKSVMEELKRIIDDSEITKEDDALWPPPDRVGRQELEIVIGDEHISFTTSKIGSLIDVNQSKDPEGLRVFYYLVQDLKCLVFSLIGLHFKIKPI
UniProt O75643: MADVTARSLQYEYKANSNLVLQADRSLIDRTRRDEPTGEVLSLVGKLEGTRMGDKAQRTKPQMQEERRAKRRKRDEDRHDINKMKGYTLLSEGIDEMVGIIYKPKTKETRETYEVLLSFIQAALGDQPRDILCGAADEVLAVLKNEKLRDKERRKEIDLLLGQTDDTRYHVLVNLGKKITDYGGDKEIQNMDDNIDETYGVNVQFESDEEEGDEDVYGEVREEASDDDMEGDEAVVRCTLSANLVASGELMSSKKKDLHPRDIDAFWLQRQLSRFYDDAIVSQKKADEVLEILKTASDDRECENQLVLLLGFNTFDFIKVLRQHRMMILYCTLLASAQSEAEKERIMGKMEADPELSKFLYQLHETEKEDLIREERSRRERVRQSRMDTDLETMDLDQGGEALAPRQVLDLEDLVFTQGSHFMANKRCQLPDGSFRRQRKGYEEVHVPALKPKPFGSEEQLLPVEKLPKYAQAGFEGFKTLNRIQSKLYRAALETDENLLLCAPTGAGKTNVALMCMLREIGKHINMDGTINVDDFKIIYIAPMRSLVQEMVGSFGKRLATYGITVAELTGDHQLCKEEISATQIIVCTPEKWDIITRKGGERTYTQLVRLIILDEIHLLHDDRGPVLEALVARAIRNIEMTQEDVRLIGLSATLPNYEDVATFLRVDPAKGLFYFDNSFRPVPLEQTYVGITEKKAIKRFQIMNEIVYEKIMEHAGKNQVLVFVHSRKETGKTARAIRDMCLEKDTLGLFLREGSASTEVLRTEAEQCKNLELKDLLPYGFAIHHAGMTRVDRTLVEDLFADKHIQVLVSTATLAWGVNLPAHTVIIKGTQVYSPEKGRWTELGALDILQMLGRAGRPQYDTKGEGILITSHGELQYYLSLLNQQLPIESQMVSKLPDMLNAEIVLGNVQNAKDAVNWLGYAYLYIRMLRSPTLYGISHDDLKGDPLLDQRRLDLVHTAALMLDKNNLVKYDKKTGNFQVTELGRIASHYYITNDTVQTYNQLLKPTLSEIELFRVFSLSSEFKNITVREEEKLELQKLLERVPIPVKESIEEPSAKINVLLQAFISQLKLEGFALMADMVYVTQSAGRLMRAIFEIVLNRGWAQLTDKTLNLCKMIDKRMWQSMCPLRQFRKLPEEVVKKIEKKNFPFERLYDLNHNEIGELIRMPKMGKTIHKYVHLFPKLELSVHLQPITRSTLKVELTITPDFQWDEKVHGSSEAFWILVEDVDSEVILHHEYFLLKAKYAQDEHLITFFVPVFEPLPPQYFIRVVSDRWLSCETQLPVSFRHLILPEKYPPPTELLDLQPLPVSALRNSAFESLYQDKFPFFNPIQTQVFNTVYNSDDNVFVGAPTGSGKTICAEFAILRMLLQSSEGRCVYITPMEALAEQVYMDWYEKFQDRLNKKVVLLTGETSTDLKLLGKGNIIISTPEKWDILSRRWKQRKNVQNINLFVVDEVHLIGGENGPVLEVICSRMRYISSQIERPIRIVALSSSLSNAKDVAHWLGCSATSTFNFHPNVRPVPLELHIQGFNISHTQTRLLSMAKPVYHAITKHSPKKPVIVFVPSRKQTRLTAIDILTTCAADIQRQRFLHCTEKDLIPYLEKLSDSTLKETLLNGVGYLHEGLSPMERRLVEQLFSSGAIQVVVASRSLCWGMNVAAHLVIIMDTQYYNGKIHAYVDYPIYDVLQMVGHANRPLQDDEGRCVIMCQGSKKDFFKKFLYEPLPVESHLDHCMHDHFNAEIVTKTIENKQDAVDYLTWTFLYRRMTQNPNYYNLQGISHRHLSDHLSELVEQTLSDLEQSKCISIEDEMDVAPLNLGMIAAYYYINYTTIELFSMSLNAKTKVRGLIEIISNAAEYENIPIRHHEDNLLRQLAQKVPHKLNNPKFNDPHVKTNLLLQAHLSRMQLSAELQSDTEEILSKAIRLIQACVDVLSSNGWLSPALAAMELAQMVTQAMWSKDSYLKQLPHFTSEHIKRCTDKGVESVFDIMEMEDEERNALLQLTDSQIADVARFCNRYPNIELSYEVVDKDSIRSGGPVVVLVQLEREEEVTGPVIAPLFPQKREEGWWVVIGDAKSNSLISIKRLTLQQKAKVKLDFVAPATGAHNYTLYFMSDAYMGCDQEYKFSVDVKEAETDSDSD
UniProt Q09161: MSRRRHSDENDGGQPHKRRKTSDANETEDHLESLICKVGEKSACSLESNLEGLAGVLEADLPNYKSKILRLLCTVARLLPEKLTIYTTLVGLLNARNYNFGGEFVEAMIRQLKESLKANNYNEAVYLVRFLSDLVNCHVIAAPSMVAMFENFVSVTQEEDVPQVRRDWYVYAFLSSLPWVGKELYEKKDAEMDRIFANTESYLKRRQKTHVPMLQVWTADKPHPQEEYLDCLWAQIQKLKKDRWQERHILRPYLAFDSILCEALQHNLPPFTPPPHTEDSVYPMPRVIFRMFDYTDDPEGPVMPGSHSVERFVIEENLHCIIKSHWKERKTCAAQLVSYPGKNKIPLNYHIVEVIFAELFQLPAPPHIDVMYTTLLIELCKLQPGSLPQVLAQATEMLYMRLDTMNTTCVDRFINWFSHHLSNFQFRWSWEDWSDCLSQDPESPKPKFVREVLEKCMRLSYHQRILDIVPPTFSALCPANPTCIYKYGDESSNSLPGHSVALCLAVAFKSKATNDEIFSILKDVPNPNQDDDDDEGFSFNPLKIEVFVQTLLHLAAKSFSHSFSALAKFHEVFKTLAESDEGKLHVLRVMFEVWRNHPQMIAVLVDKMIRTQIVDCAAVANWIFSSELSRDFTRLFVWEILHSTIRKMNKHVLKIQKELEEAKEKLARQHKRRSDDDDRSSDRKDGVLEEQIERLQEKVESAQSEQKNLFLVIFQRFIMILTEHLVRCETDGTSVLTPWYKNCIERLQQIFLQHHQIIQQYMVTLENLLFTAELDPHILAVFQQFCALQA
UniProt Q15717: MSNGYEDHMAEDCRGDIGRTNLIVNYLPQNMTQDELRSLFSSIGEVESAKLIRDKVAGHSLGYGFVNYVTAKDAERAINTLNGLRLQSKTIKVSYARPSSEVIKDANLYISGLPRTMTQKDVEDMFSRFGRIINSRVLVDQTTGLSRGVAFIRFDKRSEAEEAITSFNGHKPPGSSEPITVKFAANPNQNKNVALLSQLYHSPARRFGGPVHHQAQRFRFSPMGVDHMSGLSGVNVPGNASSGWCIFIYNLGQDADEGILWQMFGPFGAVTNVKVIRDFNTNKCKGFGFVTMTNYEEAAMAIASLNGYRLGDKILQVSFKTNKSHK

In publication PMC12563882:

Molecular target: T1, myc-BirA*-SAP18 fusion protein (UniProt O00422)
T1 sequence: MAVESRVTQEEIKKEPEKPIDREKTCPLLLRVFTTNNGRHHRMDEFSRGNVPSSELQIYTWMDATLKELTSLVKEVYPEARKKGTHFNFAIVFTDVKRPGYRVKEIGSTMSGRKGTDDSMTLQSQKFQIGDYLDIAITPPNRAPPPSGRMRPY
Assay: proximity labelling + affinity purification with mass spectrometry; double-stable Flp-In-293 cells with BirA*-SAP18 and the MINX-GG-6MS2 reporter, transfected with FLAG-MS2cp; 2 ug/mL tetracycline 48 h, 50 uM biotin 24 h; RNP complex on the reporter RNA captured on anti-FLAG M2 magnetic beads in RIP buffer (25 mM Tris pH 8.0, 150 mM NaCl, 1 mM EDTA, 1% deoxycholate, 5% glycerol), 4 °C; enriched, biotinylated proteins identified by mass spectrometry against a control IP without FLAG-MS2cp

binding: binds
Molecule: MAGOHB (from UniProt Q96A72 1-148)

binding: binds
Molecule: SNRNP200 (from UniProt O75643 1-2136)

binding: binds
Molecule: cap-binding complex protein NCBP1 (from UniProt Q09161 1-790)

binding: binds
B2: PRP19 complex-associated factor SNW1 (protein, UniProt Q13573 1-536)
chain: MALTSFLPAPTQLSQDQLEAEEKARSQRSRQTSLVSSRREPPPYGYRKGWIPRLLEDFGDGGAFPEIHVAQYPLDMGRKKKMSNALAIQVDSEGKIKYDAIARQGQSKDKVIYSKYTDLVPKEVMNADDPDLQRPDEEAIKEITEKTRVALEKSVSQKVAAAMPVRAADKLAPAQYIRYTPSQQGVAFNSGAKQRVIRMVEMQKDPMEPPRFKINKKIPRGPPSPPAPVMHSPSRKMTVKEQQEWKIPPCISNWKNAKGYTIPLDKRLAADGRGLQTVHINENFAKLAEALYIADRKAREAVEMRAQVERKMAQKEKEKHEEKLREMAQKARERRAGIKTHVEKEDGEARERDEIRHDRRKERQHDRNLSRAAPDKRSKLQRNENRDISEVIALGVPNPRTSNEVQYDQRLFNQSKGMDSGFAGGEDEIYNVYDQAWRGGKDMAQSIYRPSKNLDKDMYGDDLEARIKTNRFVPDKEFSGSDRRQRGREGPVQFEEDPFGLDKFLEEAKQHGGSKRPSDSSRPKEHEHEGKKRRKE

binding: binds
B3: SRSF7 (protein, UniProt Q16629 1-238)
chain: MSRYGRYGGETKVYVGNLGTGAGKGELERAFSYYGPLRTVWIARNPPGFAFVEFEDPRDAEDAVRGLDGKVICGSRVRVELSTGMPRRSRFDRPPARRPFDPNDRCYECGEKGHYAYDCHRYSRRRRSRSRSRSHSRSRGRRYSRSRSRSRGRRSRSASPRRSRSISLRRSRSASLRRSRSGSIKGSRYFQSPSRSRSRSRSISRPRSSRSKSRSPSPKRSRSPSGSPRRSASPERMD

The remaining lines, values behind:

Molecule: ELAVL1 (from UniProt Q15717 1-326)
binding: binds

B1: SRSF6 (protein, UniProt Q13247 1-344)
chain: MPRVYIGRLSYNVREKDIQRFFSGYGRLLEVDLKNGYGFVEFEDSRDADDAVYELNGKELCGERVIVEHARGPRRDRDGYSYGSRSGGGGYSSRRTSGRDKYGPPVRTEYRLIVENLSSRCSWQDLKDFMRQAGEVTYADAHKERTNEGVIEFRSYSDMKRALDKLDGTEINGRNIRLIEDKPRTSHRRSYSGSRSRSRSRRRSRSRSRRSSRSRSRSISKSRSRSRSRSKGRSRSRSKGRKSRSKSKSKPKSDRGSHSHSRSRSKDEYEKSRSRSRSRSPKENGKGDIKSKSRSRSQSRSNSPLPVPPSKARSVSPPPKRATSRSRSRSRSKSRSRSRSSSRD
binding: binds

B4: RNPS1 (protein, UniProt Q15287 1-305)
chain: MDLSGVKKKSLLGVKENNKKSSTRAPSPTKRKDRSDEKSKDRSKDKGATKESSEKDRGRDKTRKRRSASSGSSSTRSRSSSTSSSGSSTSTGSSSGSSSSSASSRSGSSSTSRSSSSSSSSGSPSPSRRRHDNRRRSRSKSKPPKRDEKERKRRSPSPKPTKVHIGRLTRNVTKDHIMEIFSTYGKIKMIDMPVERMHPHLSKGYAYVEFENPDEAEKALKHMDGGQIDGQEITATAVLAPWPRPPPRRFSPPRRMLPPPPMWRRSPPRMRRRSRSPRRRSPVRRRSRSPGRRRHRSRSSSNSSR
binding: binds

B5: SRSF5 (protein, UniProt Q13243 1-272)
chain: MSGCRVFIGRLNPAAREKDVERFFKGYGRIRDIDLKRGFGFVEFEDPRDADDAVYELDGKELCSERVTIEHARARSRGGRGRGRYSDRFSSRRPRNDRRNAPPVRTENRLIVENLSSRVSWQDLKDFMRQAGEVTFADAHRPKLNEGVVEFASYGDLKNAIEKLSGKEINGRKIKLIEGSKRHSRSRSRSRSRTRSSSRSRSRSRSRSRKSYSRSRSRSRSRSRSKSRSVSRSPVPEKSQKRGSSSRSKSPASVDRQRSRSRSRSRSVDSGN
binding: binds

These are yes or no findings as the source states them, for the method shown. Binding seen in cells or lysates may run through a third protein. Here binding means that the protein was enriched with, or labelled near, the bait; the list need not be complete. Tags and fused reporters may be left off the sequences shown. One block for each molecule: values may come before it.
